These are yes or no findings as the source states them, for the method shown.
Biological target: mouse LY6H expressed on 293T cells (plasmid BBP494, M1-P160 plus Myc-DDK) (mouse) (UniProt Q9WUC3)
Assay: flow cytometry on 293 cells expressing mouse LY6H (293-neo-mouse LY6H); solid histogram = hIgG1 control

The chains behind the UniProt entries cited, without tags or fusion partners. Where a name states a change or a piece, a line headed by the entry shows the natural chain unless it says otherwise.
UniProt Q9WUC3: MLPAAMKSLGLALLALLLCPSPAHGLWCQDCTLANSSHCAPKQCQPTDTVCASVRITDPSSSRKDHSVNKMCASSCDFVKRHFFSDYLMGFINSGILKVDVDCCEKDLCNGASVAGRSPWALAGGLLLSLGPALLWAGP

B1: 12G7 (antibody, V domains shown)
VH: QVQLQQWGAGLLKPSETLSLTCAVYGGSFSGYYWSWIRQPPGKGLEWIGEINHSGSTYYNPSLKSRVTMSVDTSKNQFSLKLSSVTAADTAVYYCAKRWELGAFDIWGQGTMVTVSS
VL: DIQMTQSPSSLSASVGDRVTITCRASQGISNYLAWYQQKPGKVPKLLIYAASTLQSGVPSRFSGSGSGTDFTLTISSLQPEDVATYYCQKYNSAPRTFGQGTKLEIK
For B1, which binding is on record?
The binding was “no binding (tested: 1 ug/ml (not on the sheet))”.
